The record followed here is paper PMC10252889.

Chains of the proteins cited; added tags and fusions are not shown. Lines headed by an entry give the natural chain unless they say otherwise; changes in a name come on top.
UniProt Q8BUW1: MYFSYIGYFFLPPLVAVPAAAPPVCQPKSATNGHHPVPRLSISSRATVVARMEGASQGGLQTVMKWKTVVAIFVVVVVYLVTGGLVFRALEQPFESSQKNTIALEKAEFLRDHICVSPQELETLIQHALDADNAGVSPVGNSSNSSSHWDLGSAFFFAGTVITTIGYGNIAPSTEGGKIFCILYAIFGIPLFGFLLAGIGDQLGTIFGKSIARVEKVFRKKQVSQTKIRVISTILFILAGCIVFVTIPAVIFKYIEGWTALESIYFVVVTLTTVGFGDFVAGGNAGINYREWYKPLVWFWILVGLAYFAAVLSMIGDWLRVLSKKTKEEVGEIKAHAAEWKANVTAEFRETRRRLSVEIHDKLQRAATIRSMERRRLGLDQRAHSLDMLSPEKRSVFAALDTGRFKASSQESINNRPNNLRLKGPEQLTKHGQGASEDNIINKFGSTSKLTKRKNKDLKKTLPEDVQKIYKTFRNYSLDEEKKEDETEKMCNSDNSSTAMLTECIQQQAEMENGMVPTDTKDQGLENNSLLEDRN

Assay [1] has as its target VC-tagged TREK2RRRAAA (mouse) (UniProt Q8BUW1). The assay can be described thus: split reporter; BiFC with split Venus (VN-tagged β-COP, VC-tagged channel) in co-transfected HEK293T cells, 24 h, fixed with 4% paraformaldehyde, confocal microscopy.
Assay [2] addresses VC-tagged TREK2ΔC3 (TREK2 lacking the third quarter of the C-terminal region) (mouse) (UniProt Q8BUW1). Described as above.
In assay [3] the target is VC-tagged TREK2ΔC1 (TREK2 lacking the first quarter of the C-terminal region) (mouse) (UniProt Q8BUW1). The description is as above.
For assay [4], the target named is VC-tagged TREK2ΔC (TREK2 C-terminus deletion mutant) (mouse). Described as above.
The target in assay [5] is VC-tagged TREK2ΔC4 (TREK2 lacking the fourth quarter of the C-terminal region) (mouse). Described as above.
Assay [6] has as its target VC-tagged TREK2ΔC2 (TREK2 lacking the second quarter of the C-terminal region) (mouse) (UniProt Q8BUW1). The description is as above.
The target in assay [7] is VC-tagged TREK2ΔN (TREK2 N-terminal deletion mutant) (mouse). The assay is described as above.
The target in assay [8] is GFP-tagged TREK2ΔN (TREK2 N-terminal deletion mutant) (mouse). Nature of the assay: co-IP; HEK293T cells co-transfected with GFP-tagged TREK2 or its deletion mutants and mCh-β-COP; lysate immunoprecipitated with anti-GFP overnight at 4 °C, Protein G agarose, blotted with anti-mCh (anti-RFP).
Assay [9] has as its target GFP-tagged TREK2ΔC2 (mouse) (UniProt Q8BUW1). The assay is described as above.
The target in assay [10] is GFP-tagged TREK2ΔC4 (mouse). The description is as above.
For assay [11], the target named is GFP-tagged TREK2ΔC1 (mouse) (UniProt Q8BUW1). The assay is described as above.
The target in assay [12] is GFP-tagged TREK2ΔC (TREK2 C-terminus deletion mutant) (mouse). Described as above.
The target of assay [13] is GFP-tagged TREK2ΔC3 (mouse) (UniProt Q8BUW1). Described as above.
Assay [14] has as its target Flag-tagged TREK2RRRAAA (AAA substituted for RRR in the TREK2 C2 segment) (mouse) (UniProt Q8BUW1). Nature of the assay: co-IP; HEK293T cells co-transfected with Flag-tagged channel and GFP-β-COP; lysate immunoprecipitated with anti-Flag overnight at 4 °C, Protein G agarose, blotted with anti-GFP.

No constants are given. Whether binding was seen depends on the method and setting. Binding seen in cells or lysates may run through a third protein. For some assays here: A result given as binding can be weak or reduced; the word gives no strength. Where a sequence is shown, tags or fusion partners need not be part of it.

B1: VN-tagged β-COP (β-coat protein) (protein, UniProt Q9JIF7 1-953)
chain: MTAAENVCYTLINVPMDSEPPSEISLKNDLEKGDVKSKTEALKKVIIMILNGEKLPGLLMTIIRFVLPLQDHTIKKLLLVFWEIVPKTTPDGRLLHEMILVCDAYRKDLQHPNEFIRGSTLRFLCKLKEAELLEPLMPAIRACLEHRHSYVRRNAVLAIYTIYRNFEHLIPDAPELIHDFLVNEKDASCKRNAFMMLIHADQDRALDYLSTCIDQVQTFGDILQLVIVELIYKVCHANPSERARFIRCIYNLLQSSSPAVKYEAAGTLVTLSSAPTAIKAAAQCYIDLIIKESDNNVKLIVLDRLVELKEHPAHERVLQDLVMDILRVLSTPDLEVRKKTLQLALDLVSSRNVEELVIVLKKEVIKTNNVSEHEDTDKYRQLLVRTLHSCSVRFPDMAANVIPVLMEFLSDSNEAAAADVLEFVREAIQRFDNLRMLIVEKMLEVFHAIKSVKIYRGALWILGEYCSTKEDIQSVMTEVRRSLGEIPIVESEIKKEAGELKPEEEITVGPVQKLVTEMGTYATQSALSSSRPTKKEEDRPPLRGFLLDGDFFVAASLATTLTKIALRYVALVQEKKKQNSFVAEAMLLMATILHLGKSSLPKKPITDDDVDRISLCLKVLSECSPLMNDIFNKECRQSLSQMLSAKLEEEKLSQKKESEKRNVTVQPDDPISFMQLTAKNEMNCKEDQFQLSLLAAMGNTQRKEAADPLASKLNKVTQLTGFSDPVYAEAYVHVNQYDIVLDVLVVNQTSDTLQNCTLELATLGDLKLVEKPSPLTLAPHDFANIKANVKVASTENGIIFGNIVYDVSGAASDRNCVVLSDIHIDIMDYIQPATCTDAEFRQMWAEFEWENKVTVNTNMTDLNDYLQHILKSTNMKCLTPEKALSGYCGFMAANLYARSIFGEDALANVSIEKPVHQGPDAAVTGHIRIRAKSQGMALSLGDKINLSQKKTSL
In the case of B1, the binding entry in assay [1] is “no binding”; in [2] it was “binds”; in assay [3] it was “binds”; in assay [4], “no binding”; in [5], “binds”; in assay [6], “no binding”. The binding result in assay [7] was “binds”.

B2: mCherry-tagged β-COP (protein, UniProt Q9JIF7 1-953)
chain: B1 chain
As to B2, the binding entry in [8] was “binds”; in [9], “no binding”; in [10], “binds”; in [11], “binds”; in assay [12], “no binding”; in assay [13] it was “binds”.

B3: GFP-tagged β-COP (protein, UniProt Q9JIF7 1-953)
chain: B1 chain
As to B3, the binding entry in [14] is on record as “no binding”.
